Only a part is listed here, and it is no random draw.
Compound: COC(=O)C#Cc1ccccc1 [methyl 3-phenylpropiolate]
Test: log2 ratio of iodoacetamide-alkyne labeling of the cysteine site, DMSO over compound (competition); higher = stronger covalent engagement of the cysteine by the compound, active = 1 or more
Details: 500 µM; treatment time 1 h; system: HEK293T cell lysate
Outline: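 Reporter intensities give each cysteine's log2 competition ratio as the mean of control channels over the mean of compound channels. The samples were HEK293T lysate (2 mg/mL) given vehicle or electrophile (500 µM, 1 h, ambient temperature), then iodoacetamide alkyne (1 h), followed by click coupling to sCIP-TMT reagents, pooling, trypsin digestion overnight at 37 °C, streptavidin enrichment, acid elution, Orbitrap Eclipse LC-MS/MS with FAIMS and FragPipe quantification. Duplicate channels and three replicates were run, and cysteines quantified in only one replicate were discarded.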

By UniProt entry, the sequences of proteins in these tests, tags left out. Where a name states a change or a piece, a line headed by the entry shows the natural chain unless it says otherwise.
UniProt P07814: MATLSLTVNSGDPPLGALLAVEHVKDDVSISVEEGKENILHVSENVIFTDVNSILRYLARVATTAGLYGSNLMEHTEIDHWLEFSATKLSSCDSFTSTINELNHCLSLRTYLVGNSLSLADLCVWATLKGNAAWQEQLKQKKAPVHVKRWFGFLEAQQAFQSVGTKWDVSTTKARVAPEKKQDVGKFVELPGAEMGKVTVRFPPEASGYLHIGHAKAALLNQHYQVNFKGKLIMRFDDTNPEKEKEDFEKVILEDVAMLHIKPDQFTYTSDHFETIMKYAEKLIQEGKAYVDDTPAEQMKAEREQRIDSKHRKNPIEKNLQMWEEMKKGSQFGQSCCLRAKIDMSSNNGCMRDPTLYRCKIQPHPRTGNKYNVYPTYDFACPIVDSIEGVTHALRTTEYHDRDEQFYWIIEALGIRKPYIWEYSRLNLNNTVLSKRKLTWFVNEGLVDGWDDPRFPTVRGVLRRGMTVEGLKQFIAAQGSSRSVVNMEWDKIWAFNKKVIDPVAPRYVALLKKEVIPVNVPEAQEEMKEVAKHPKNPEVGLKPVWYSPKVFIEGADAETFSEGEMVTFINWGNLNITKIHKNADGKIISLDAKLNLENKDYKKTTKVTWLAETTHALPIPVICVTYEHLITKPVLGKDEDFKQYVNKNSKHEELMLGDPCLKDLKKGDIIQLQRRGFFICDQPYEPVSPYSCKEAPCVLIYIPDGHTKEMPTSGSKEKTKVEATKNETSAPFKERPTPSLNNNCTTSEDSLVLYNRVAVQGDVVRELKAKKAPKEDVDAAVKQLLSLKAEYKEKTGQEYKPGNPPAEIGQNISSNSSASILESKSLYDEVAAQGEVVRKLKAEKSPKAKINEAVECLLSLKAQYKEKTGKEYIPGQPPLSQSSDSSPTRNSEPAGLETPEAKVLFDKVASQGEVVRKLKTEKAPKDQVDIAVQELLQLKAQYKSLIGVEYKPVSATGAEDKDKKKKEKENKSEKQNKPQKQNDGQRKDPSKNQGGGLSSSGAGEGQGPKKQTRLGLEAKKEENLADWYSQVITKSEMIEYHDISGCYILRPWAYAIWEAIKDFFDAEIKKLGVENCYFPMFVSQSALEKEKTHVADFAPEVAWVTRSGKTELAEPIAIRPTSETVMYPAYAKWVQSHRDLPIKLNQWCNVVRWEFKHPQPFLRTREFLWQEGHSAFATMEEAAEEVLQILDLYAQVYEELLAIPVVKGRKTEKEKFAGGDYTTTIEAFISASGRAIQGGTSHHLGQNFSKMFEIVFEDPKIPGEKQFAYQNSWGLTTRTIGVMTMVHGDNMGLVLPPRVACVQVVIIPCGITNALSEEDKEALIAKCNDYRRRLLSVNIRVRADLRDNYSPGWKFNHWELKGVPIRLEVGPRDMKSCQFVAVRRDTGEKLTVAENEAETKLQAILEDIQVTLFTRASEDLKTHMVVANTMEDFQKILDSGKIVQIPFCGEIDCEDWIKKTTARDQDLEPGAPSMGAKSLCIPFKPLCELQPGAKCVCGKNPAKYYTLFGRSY
UniProt P06132: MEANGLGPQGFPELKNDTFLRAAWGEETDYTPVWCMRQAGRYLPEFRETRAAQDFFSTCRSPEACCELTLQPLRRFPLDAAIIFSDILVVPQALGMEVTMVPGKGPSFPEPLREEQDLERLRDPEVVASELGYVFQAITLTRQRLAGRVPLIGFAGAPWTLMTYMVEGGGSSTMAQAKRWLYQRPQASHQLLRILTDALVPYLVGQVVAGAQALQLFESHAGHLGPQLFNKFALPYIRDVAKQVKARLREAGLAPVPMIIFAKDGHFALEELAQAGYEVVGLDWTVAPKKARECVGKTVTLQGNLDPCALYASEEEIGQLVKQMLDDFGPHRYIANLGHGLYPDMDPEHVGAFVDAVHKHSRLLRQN
UniProt P00441, whole entry, looked up: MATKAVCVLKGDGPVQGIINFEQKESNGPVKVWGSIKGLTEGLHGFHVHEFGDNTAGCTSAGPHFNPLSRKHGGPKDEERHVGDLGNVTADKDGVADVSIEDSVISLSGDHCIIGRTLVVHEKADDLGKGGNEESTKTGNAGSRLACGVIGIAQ
UniProt P04183: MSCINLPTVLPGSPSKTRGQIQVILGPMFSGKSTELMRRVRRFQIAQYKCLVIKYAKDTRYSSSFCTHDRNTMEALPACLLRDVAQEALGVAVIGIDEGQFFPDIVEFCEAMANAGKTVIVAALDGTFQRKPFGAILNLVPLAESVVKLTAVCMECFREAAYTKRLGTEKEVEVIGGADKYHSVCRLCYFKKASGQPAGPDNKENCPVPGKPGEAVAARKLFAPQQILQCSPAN
UniProt P00558: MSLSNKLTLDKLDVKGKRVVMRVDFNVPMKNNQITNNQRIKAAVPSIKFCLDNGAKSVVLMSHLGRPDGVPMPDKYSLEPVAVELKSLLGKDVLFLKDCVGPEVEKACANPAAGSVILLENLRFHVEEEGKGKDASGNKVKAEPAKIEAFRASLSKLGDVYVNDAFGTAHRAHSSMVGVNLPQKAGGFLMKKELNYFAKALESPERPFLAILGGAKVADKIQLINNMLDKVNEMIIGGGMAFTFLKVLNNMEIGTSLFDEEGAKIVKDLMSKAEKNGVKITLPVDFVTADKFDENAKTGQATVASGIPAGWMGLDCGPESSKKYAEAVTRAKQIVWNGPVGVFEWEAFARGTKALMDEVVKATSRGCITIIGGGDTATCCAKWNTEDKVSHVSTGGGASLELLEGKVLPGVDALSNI
UniProt O95071: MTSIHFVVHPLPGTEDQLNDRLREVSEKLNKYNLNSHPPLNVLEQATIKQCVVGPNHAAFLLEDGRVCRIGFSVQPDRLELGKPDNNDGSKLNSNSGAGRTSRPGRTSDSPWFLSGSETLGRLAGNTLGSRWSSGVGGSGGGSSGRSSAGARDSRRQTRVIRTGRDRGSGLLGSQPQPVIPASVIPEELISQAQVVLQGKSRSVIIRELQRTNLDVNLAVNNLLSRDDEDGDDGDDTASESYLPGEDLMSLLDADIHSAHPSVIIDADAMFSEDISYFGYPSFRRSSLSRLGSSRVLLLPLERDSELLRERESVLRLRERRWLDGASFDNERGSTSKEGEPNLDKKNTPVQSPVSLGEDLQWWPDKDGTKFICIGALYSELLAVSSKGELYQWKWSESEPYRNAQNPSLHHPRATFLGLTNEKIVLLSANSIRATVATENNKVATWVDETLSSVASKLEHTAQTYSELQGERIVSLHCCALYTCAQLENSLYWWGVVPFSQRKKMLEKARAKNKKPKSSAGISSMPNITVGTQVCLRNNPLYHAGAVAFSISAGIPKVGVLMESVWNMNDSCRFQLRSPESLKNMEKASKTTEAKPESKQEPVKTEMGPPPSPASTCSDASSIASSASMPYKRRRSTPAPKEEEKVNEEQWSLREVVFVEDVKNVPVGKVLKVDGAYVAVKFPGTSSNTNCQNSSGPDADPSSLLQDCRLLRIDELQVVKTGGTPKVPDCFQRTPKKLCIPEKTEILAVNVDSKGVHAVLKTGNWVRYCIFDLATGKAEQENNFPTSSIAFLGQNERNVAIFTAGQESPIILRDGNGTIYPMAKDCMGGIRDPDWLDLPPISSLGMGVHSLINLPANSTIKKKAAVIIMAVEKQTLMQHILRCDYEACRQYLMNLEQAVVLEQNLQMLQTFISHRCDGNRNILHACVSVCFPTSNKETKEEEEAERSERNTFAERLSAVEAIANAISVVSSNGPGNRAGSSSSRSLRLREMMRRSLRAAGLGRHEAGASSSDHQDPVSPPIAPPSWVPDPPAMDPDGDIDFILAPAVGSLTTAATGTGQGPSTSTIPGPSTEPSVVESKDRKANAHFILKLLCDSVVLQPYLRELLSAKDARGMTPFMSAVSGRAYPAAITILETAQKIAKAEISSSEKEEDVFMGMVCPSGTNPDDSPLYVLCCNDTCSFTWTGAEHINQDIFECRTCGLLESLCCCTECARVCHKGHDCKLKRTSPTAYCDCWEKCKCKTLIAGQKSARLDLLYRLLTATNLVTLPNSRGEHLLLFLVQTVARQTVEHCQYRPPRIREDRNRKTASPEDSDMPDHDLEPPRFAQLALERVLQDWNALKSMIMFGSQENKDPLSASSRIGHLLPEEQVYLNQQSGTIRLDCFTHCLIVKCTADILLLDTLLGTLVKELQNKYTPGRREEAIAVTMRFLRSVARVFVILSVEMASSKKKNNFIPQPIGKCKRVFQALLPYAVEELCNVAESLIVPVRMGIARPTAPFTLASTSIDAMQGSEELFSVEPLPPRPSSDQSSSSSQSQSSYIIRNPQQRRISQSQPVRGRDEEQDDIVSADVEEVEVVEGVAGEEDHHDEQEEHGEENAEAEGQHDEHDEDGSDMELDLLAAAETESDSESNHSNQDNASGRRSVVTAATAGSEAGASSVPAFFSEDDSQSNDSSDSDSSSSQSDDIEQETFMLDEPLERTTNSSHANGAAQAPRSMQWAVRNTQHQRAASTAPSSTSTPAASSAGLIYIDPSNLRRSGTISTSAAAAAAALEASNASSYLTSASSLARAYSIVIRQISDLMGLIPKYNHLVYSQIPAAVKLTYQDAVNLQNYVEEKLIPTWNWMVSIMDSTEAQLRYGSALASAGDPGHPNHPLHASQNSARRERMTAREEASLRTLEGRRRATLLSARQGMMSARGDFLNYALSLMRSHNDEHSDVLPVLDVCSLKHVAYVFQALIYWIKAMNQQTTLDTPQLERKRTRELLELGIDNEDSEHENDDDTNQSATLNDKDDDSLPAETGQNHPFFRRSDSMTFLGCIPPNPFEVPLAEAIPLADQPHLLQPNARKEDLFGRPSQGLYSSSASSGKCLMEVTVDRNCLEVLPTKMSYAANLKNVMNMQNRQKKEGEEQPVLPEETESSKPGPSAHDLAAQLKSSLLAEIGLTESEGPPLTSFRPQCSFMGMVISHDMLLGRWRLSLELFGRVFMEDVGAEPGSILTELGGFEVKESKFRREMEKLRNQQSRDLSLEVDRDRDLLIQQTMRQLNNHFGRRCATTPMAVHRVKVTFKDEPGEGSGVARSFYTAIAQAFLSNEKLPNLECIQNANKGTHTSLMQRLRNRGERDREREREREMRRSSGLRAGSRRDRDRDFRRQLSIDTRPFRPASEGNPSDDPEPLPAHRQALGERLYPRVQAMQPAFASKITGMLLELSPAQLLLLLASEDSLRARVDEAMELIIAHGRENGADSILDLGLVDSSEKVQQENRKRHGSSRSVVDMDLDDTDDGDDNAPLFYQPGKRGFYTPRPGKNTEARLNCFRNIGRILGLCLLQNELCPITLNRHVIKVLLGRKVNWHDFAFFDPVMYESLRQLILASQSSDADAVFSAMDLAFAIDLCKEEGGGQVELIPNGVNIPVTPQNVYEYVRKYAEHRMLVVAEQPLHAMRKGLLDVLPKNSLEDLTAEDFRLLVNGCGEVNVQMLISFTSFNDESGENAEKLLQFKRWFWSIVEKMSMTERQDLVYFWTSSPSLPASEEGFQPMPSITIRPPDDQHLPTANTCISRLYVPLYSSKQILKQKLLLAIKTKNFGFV
UniProt O95817, whole entry, looked up: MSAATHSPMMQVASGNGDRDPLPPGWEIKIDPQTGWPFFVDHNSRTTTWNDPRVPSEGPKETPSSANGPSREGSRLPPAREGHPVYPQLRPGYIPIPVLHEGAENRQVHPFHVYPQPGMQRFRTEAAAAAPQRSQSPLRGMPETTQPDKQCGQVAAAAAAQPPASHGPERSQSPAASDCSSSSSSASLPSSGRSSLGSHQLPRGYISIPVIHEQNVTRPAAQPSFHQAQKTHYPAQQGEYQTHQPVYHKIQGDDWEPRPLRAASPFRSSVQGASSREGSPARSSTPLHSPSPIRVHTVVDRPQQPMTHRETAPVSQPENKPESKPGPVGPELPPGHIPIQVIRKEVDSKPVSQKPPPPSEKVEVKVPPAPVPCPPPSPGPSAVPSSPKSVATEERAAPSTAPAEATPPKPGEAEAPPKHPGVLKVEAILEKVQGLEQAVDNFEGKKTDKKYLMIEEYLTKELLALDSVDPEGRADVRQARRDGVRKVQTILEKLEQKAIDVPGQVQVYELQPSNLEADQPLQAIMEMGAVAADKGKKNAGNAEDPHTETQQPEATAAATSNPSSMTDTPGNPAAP
UniProt P06733, whole entry, looked up: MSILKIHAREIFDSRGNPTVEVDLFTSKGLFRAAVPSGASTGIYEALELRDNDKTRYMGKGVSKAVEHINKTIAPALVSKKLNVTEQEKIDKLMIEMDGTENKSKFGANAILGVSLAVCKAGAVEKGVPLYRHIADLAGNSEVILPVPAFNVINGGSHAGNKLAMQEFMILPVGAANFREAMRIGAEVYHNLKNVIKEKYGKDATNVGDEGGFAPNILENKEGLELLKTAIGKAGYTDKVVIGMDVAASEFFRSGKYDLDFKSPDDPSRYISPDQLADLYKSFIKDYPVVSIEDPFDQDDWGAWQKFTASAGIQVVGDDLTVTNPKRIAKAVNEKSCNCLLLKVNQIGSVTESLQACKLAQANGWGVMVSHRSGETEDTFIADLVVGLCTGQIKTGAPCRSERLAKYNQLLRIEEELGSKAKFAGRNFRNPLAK

log2 ratio of iodoacetamide-alkyne labeling, inactive:
UniProt P00519_C1100 0.9
PCNT C2185 (UniProt O95613) 0.362
EPRS C350 (UniProt P07814) 0.193
RPLP0 C27 (UniProt P05388) 0.649
UROD C308 (UniProt P06132) 0.28
SMC2 C132 (UniProt O95347) 0.137
GPX1 C202 (UniProt P07203) 0.00172
GLUD1 C376 (UniProt P00367) 0.385
PGLS C156 (UniProt O95336) 0.732
TOMM40 C74 (UniProt O96008) 0.454
ACSL3 C85 (UniProt O95573) -0.29
SOD1 C112 (UniProt P00441) -0.0637
TK1 C206 (UniProt P04183) 0.42
PGK1 C316 (UniProt P00558) 0.0644
SVIL C1989 (UniProt O95425) 0.825
TK1 C230 (UniProt P04183) 0.335
CNOT4 C175 (UniProt O95628) 0.0314
UniProt O96017_C539 0.494
KIF4A C312 (UniProt O95239) 0.191
UROD C35 (UniProt P06132) 0.238
ZRANB2 C88 (UniProt O95218) 0.263
EPRS C105 (UniProt P07814) 0.298
UniProt O95071_C2267 0.736
PGM3 C200 (UniProt O95394) 0.18
GAPDH C247 (UniProt P04406) -0.518
BAG3 C179 (UniProt O95817) 0.316
NFAT5 C217 (UniProt O94916) 0.493
SEC24B C1267 (UniProt O95487) -0.267
UniProt O94822_C498 0.086
UBE4B C1129 (UniProt O95155) -0.00716
RPN1 C477 (UniProt P04843) 0.519
HERC2 C2770 (UniProt O95714) 0.612
SBF1 C553 (UniProt O95248) 0.997
ENO1 C389 (UniProt P06733) 0.125
EPRS C1448 (UniProt P07814) 0.152
UniProt O95551_C273 -0.192
SASH1 C822 (UniProt O94885) 0.662

Retrieved one by one from the entries so far:
log2 ratio of iodoacetamide-alkyne labeling, inactive:
UROD C35 (UniProt P06132) 0.238
TK1 C230 (UniProt P04183) 0.335

Following part:

log2 ratio of iodoacetamide-alkyne labeling, active:
MBD4 C268 (UniProt O95243) 1.12

Reference: the supplement of paper PMC11006884
